PubChem BioAssay AID1053208 – Peter MacCallum Cancer Centre – 2014
This is a random part of about 17,000 reagents. Over the whole deposit, 788 (4.7%) were called active. 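Calls rest on z-score classes alone; an extra cut-off of viability at most 70% of control was not applied to them.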 Reagents against one gene are numbered here.

- Aim: 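Synthetic lethal interactions between gene loss and doxorubicin in osteosarcoma cells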 (primary screen)
- System: mouse osteosarcoma cells, early-passage culture from an engineered mouse model of fibroblastic bone tumour
- Reagents: siRNA pool against mouse genes, 40 nM
- Duration: about 120 h (48 h before drug, then 72 h with drug)
- Treatment: doxorubicin 100 nM for 72 h, roughly 30-40% inhibitory dose
- Measured: 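Luminescent ATP signal taken as viability with or without 100 nM doxorubicin for 72 h; mean of two wells set against non-targeting siRNA and turned into robust z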
- Scale: viability z-score with doxorubicin and doxorubicin viability vs non-targeting: higher = more viable cells under doxorubicin; viability z-score without drug: higher = more viable cells with knock-down alone; z-score of drug to no-drug ratio: higher = less drug sensitisation by knock-down
- Rule for the call: 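a pool counts as active when its viability z-score with doxorubicin is -2 or below and its z-score without drug lies between -2 and 2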

no.	gene knocked down	reagent no.	combined z-score class	viability z-score with doxorubicin	viability z-score without drug	z-score of drug to no-drug ratio	doxorubicin viability vs non-targeting	activity call
1	Rel	1	no change with or without drug	0.67	0.67	0.34	1	inactive
2	Nr3c2	1	no change with or without drug	-0.9	-0.17	-0.79	0.86	inactive
3	Mast2	1	no change with or without drug	1.35	0.67	1.01	1.06	inactive
4	Il3ra	1	low cell count without drug only	-1.57	-2.19	0	0.8	inactive
5	Phf23	1	no change with or without drug	0	0.51	-0.22	0.94	inactive
6	Syngr4	1	no change with or without drug	-1.57	0.34	-1.8	0.8	inactive
7	Kctd3	1	no change with or without drug	-0.9	1.18	-1.57	0.86	inactive
8	Fbxw7	1	no change with or without drug	-1.57	0.84	-2.02	0.8	inactive
9	Vat1l	1	no change with or without drug	0	1.18	-0.67	0.94	inactive
10	Ankrd27	1	no change with or without drug	-0.45	0.17	-0.45	0.9	inactive
11	Wbp1	1	high cell count with doxorubicin only	3.93	1.69	2.81	1.29	inactive

Limited to “doxorubicin viability vs non-targeting”, for 2 of the entries above:
Fbxw7: 0.8
Vat1l: 0.94

The list goes on.
no.	gene knocked down	reagent no.	combined z-score class	viability z-score with doxorubicin	viability z-score without drug	z-score of drug to no-drug ratio	doxorubicin viability vs non-targeting	activity call
12	Arl6ip6	1	no change with or without drug	1.35	0.51	1.12	1.06	inactive
13	Ak2	1	no change with or without drug	-0.45	-0.84	0.22	0.9	inactive
14	Mtrfr	1	no change with or without drug	0.22	0.17	0.22	0.96	inactive
15	Fgd5	1	no change with or without drug	-0.45	0.34	-0.56	0.9	inactive
16	Vti1a	1	high cell count with doxorubicin only	2.92	1.85	1.69	1.2	inactive
17	Vti1a	2	low cell count with doxorubicin only	-2.36	1.18	-2.92	0.73	active
18	Or2g25	1	no change with or without drug	-1.35	-0.17	-1.24	0.82	inactive
19	Glipr1	1	no change with or without drug	-0.9	-0.51	-0.56	0.86	inactive
20	Spem2	1	no change with or without drug	-0.45	-1.18	0.45	0.9	inactive
